Experimental data: article PMC12775136
No constants are given. Whether binding was seen depends on the method and setting. Tags and fused reporters may be left off the sequences shown.

Target: T1, GST-3′hExofl (human) (UniProt Q8IV48)
T1 sequence: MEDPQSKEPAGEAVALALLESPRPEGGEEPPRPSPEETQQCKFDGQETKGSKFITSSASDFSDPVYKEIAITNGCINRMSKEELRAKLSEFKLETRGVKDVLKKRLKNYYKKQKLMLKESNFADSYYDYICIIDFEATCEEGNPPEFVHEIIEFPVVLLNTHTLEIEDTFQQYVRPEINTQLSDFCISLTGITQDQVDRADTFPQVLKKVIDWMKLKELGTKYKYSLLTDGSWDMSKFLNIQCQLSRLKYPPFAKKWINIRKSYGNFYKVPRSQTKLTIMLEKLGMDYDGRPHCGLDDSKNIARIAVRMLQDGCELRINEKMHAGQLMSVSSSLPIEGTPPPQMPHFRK
Assay: pull-down; GST pull-down: 8 µg GST-tagged bait with 8 µg prey, 1 h, 25 °C, 20 mM HEPES pH 7.5, 70 mM NaCl, 0.1% NP-40, 10% glycerol; eluted with glutathione; SDS-PAGE, Coomassie; both purified

Substance: UPF2-MIF4G1-2 (human) (domain or fragment)
- binding: no binding (tested: 8 µg prey with 8 µg GST-tagged bait)
